# Measured values: PubChem BioAssay AID485298 (National Center for Advancing Translational Sciences (NCATS), 2010)
# About 740 (0.23%) of roughly 320,000 compounds were called active. Inconclusive results, whose numbers are uncertain, are shown with a selection of clear calls. The call rests on the fitted dose curve; in most records, active means well fitted activation curve with a large enough effect; inconclusive means small, poorly fitted or top-dose-only effect; inactive means no such curve, though single readings can be large or run the other way. Where the call is inconclusive, the potency comes from a doubtful curve fit. More than one record can exist for a structure, and the calls need not agree.
# Experiment: qHTS Assay for Small Molecule Inhibitors of Mitochondrial Division or Activators of Mitochondrial Fusion; further: nearly all actives have a fitted effect of over 45% in size;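 on growth rescue (activation): temperature-sensitive fusion mutants such as fzo1-1 at 37 °C on non-fermentable ethanol glycerol medium; % of control where 0% means no effect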
# Conditions: S. cerevisiae fusion-defective mutant growth rescue, CellTiterGlo 48 h; growth rescue (activation): at 46.1 µM (top of the series) unless noted
# Outline: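 Luminescent cell viability in 1536-well qHTS format served as the measure of rescued growth in ts fusion-mutant S. cerevisiae cultured on non-fermentable YPEG for 48 hours at 37C.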
# Potency means the concentration at half of the fitted maximal effect.
Structure (SMILES),growth rescue (activation),Potency
O=C(Nc1nc(-c2cccc(Br)c2)cs1)Oc1ccccc1,inactive: -17%,–
COc1ccccc1C(=O)NCC1(c2ccccc2)CCCC1,–,"inconclusive: 12.6 µM [activator, partial curve]"
NC(=NCc1ccc2c(c1)OCO2)NC(=O)c1ccccc1,inactive: -2.15%,–
Cc1ccn2c(Nc3ccccc3)c(-c3ccccn3)nc2c1,inactive: -3.52%,–
Cc1c(C#N)c(N)nc2c3c(sc12)NC(=O)CC3c1ccccc1 (stereo unspecified),inactive: 2.85%,–
Cc1ccc(C(=O)N/N=C/c2ccc(-c3ccccc3[N+](=O)[O-])o2)cn1,inactive: 11.4%,–
CC1=CC(C)(C)NC(=S)N1C(C)c1ccccc1 (stereo unspecified),inactive: -15.9%,–
CC1(C)CC(=O)/C(=C(/O)Cc2ccccc2)C(=NCCc2ccccc2)C1,–,"inconclusive: 22.4 µM [activator, single point]"
Cc1ccccc1NS(=O)(=O)c1ccc2[nH]cc(C(=O)NC3CCCCC3)c(=O)c2c1,inactive: -4.89%,–
NC(=O)c1cc(Cl)ccc1OCC(=O)Nc1ccc2c(c1)OCO2,inactive: 2.55%,–
CNC(=S)N1N=C(c2ccc(Br)cc2)CC1c1ccc(N(C)C)cc1 (stereo unspecified),inactive: 23.1%,–
COc1ccc(S(=O)(=O)N(CC(=O)NCc2ccncc2)c2ccc(C)cc2)cc1OC,inactive: 4.15%,–
COc1ccc(OC)c(C2C(C(=O)Nc3nc4ccccc4s3)=C(C)NC3=C2C(=O)CCC3)c1 (stereo unspecified),–,"inconclusive: 35.5 µM [activator, single point]"
CCC(C)(C)C1CCc2[nH]nc(C(=O)NCC3CC3)c2C1 (stereo unspecified),–,"inconclusive: 3.16 µM [activator, full curve, poor fit]"
O=C(Nc1cccc(-c2nc3cccnc3s2)c1)c1ccco1,–,"inconclusive: 12.6 µM [activator, partial curve]"
O=C(O)c1ccc(Cl)c(S(=O)(=O)N(Cc2ccccc2)c2ccccc2Cl)c1,–,"inconclusive: 12.6 µM [activator, partial curve]"
CCC[n+]1c(C)sc2c3c(ccc21)CCCC3,–,"inconclusive: 12.6 µM [activator, partial curve]"
COc1ccc(/C=C2/C(=O)OCc3cc(OC)c(OC)cc32)cc1,–,"inconclusive: 11.2 µM [activator, partial curve]"
CC(=O)Nc1ccccc1OCC(=O)NCCc1ccc(Cl)cc1Cl,inactive: -3.6%,–
CC(C)CC(=O)Nc1ccc2nn(-c3ccccc3)nc2c1,–,"inconclusive: 22.4 µM [activator, single point]"
CN1CCN(S(=O)(=O)c2ccc3c(c2)NC(=O)CS3)CC1,–,"inconclusive: 35.5 µM [activator, single point]"
Cc1ccc(C(=O)OCc2cn(-c3ccccc3)nn2)cc1,–,"inconclusive: 35.5 µM [activator, single point]"
CCn1c(SCC(=O)Nc2ccc(NC(=O)c3ccco3)c(OC)c2)nc2ccccc2c1=O,–,"inconclusive: 1.41 µM [activator, partial curve]"
COc1cc(C(=O)NCC2CCCO2)cc(Br)c1OCc1ccccc1 (stereo unspecified),–,"inconclusive: 15.8 µM [activator, partial curve]"

Structure (SMILES),growth rescue (activation),Potency
Cc1cccc(C(=O)NCC(=O)OCc2nnc(-c3ccccc3)o2)c1,inactive: -5.74%,–
CCC1(C)Cc2c(sc3nc(NC)n(C)c(=O)c23)CO1 (stereo unspecified),–,"inconclusive: 0.562 µM [activator, partial curve, poor fit]"
CCc1ccc(C2=Nn3c(nnc3-c3cccs3)SC2)cc1,inactive: -7.96%,–
Cc1nc2cc(-c3cccc(F)c3)nn2c(C)c1CCC(=O)NC(C)c1ccc2c(c1)OCCO2 (stereo unspecified),–,"inconclusive: 14.1 µM [activator, partial curve]"
CCC1CCCCN1c1cc(C)nc2cc(-c3cccc(C)c3)nn12 (stereo unspecified),–,"inconclusive: 20 µM [activator, single point]"
O=c1c2[nH]c3ccc(F)cc3c2ncn1CCCN1CCOCC1,inactive: 3.34%,–
COc1cccc(NC(=O)CN(C)CC(=O)Nc2ccc(C)cc2Cl)c1,–,"inconclusive: 35.5 µM [activator, partial curve]"
N=c1c(S(=O)(=O)c2ccc(Cl)cc2)cc2c(=O)n3ccccc3nc2n1CCc1ccccc1,inactive: 2.42%,–
COC(=O)c1sc2nc(N3CCCCC3)c3c(c2c1N)CCCC3,–,"inconclusive: 12.6 µM [activator, single point]"
CCc1nnc(NC(=O)C2CCCN2C(=O)Nc2ccc(C)cc2)s1 (stereo unspecified),inactive: -3.31%,–
CCN1CCN(Cc2c(O)ccc3c(=O)c(-c4ccc(OC)c(OC)c4)c(C)oc23)CC1,inactive: 0.826%,–
O=C(NCCCCNC(=O)C(F)(F)F)C(F)(F)F,–,"inconclusive: 15.8 µM [activator, partial curve]"
C(=C\c1nccc2c1[nH]c1ccccc12)/c1ccccc1,–,"inconclusive: 35.5 µM [activator, single point]"
NC(=O)NC(=O)COC(=O)c1ccc(Cl)c(S(=O)(=O)N(Cc2ccccc2)c2ccc(Cl)cc2)c1,–,"inconclusive: 31.6 µM [activator, single point]"
Cc1cc(NS(=O)(=O)c2ccc(NC(=O)COc3ccc(Br)cc3)cc2)nc(C)n1,inactive: -3.49%,–
O=C(NCC1CCCO1)c1ccc2c(c1)N(Cc1ccc(F)cc1Cl)C(=O)CS2 (stereo unspecified),–,"inconclusive: 10 µM [activator, partial curve]"
O=C(Cc1cn2ccsc2n1)OCc1ccccc1,inactive: -6.81%,–
Cc1ccc(O)c(-c2cc(-c3ccccc3C)[nH]n2)c1,–,"inconclusive: 25.1 µM [activator, single point]"
CC(=O)c1c(C)[nH]c(C(=O)CSc2nnc(-c3cccs3)n2Cc2ccccc2)c1C,–,"inconclusive: 28.2 µM [activator, single point]"
Cc1cccc(NC(=O)CSCC(=O)Nc2ccccc2N2CCCCC2)c1,–,"inconclusive: 17.8 µM [activator, single point]"
O=C(CSCc1ccc(Cl)cc1)N1CCN(Cc2ccc3c(c2)OCO3)CC1,–,"inconclusive: 12.6 µM [activator, partial curve]"
COc1ccc2c(c1)cc(C(O)c1ccccn1)n2S(=O)(=O)c1ccccc1 (stereo unspecified),–,"inconclusive: 2.82 µM [activator, full curve]"
COc1ccc(S(=O)(=O)N2CCCCCC2)cc1C(=O)NCc1ccccc1Cl,–,"inconclusive: 11.2 µM [activator, single point]"
CCOc1ccc(/C=C/C(=O)c2cc(Br)ccc(=O)c2O)cc1,inactive: 26.5%,–

Structure (SMILES),growth rescue (activation),Potency
O=C(c1cc(-c2ccccc2Cl)nc2ccccc12)N1CCN(c2ccccc2O)CC1,–,"inconclusive: 35.5 µM [activator, single point]"
O=c1cc(C(F)(F)F)[nH]c2ccc(OC(F)(F)F)cc12,–,"inconclusive: 15.8 µM [activator, single point]"
COc1ccc(NC(=S)N2CCN(c3ncccn3)CC2)cc1,–,"inconclusive: 10 µM [activator, single point]"
Cn1c(CO)cnc1SCC(=O)c1ccc(F)cc1,inactive: -3.71%,–
CC(C)(C)c1ccc(OCc2ccc(C(=O)Nc3cccnc3)o2)cc1,–,"inconclusive: 8.91 µM [activator, partial curve]"
O=C1c2ccccc2C(=O)N1CCCCSc1nnnn1-c1ccccc1,–,"inconclusive: 20 µM [activator, partial curve]"
CCOc1ccc(-n2cnc3c(=O)[nH]c(N)nc32)cc1,–,"inconclusive: 5.62 µM [activator, single point]"
COc1ccc(-c2cc(C(=O)N3CC(C)CC(C)C3)c3ccccc3n2)cc1OC (stereo unspecified),–,"inconclusive: 20 µM [activator, single point]"
COc1cccc(COc2ccc3c(C)cc(=O)oc3c2)c1,–,"inconclusive: 12.6 µM [activator, partial curve]"
CCOC(=O)c1c(N)sc2c(OCC)c(Br)ccc12,–,"inconclusive: 17.8 µM [activator, single point]"
COc1cc(/C=N/NC(=O)c2ccc(CN3C(=O)c4cccc5cccc3c45)cc2)cc(OC)c1O,–,"inconclusive: 17.8 µM [activator, single point]"
O=C(COc1ccc(Cl)cc1)Nc1cccc(-c2ccc3nncn3n2)c1,–,"inconclusive: 35.5 µM [activator, single point]"
CCOc1cc(/C=N/O)ccc1OCc1ccc(C)cc1,–,"inconclusive: 4.47 µM [activator, partial curve]"
Cc1ccc(CON=C2CCN(c3ncc(C(F)(F)F)cc3Cl)CC2)cc1,inactive: -4.88%,–
CCOC(=O)c1ccc(N2C(=O)c3n[nH]c(-c4ccco4)c3C2c2cccc([N+](=O)[O-])c2)cc1 (stereo unspecified),–,"inconclusive: 31.6 µM [activator, single point]"
COc1cc(C(N)=O)cc(Cl)c1OCc1ccccc1,–,"inconclusive: 14.1 µM [activator, partial curve]"
COC(=O)c1ccc(-c2nc3cc(N)ccc3o2)cc1,–,"inconclusive: 17.8 µM [activator, single point]"
CCCC1=Nc2cc(C(=O)N3CCN(c4ccccn4)CC3)ccc2Sc2ccc(C)cc21,–,"inconclusive: 35.5 µM [activator, partial curve]"
O=C(O)c1ccccc1Nc1cccc(OCc2ccc3ccccc3n2)c1,–,active: 14.6 µM
N#Cc1c(-c2ccc([N+](=O)[O-])cc2)nc2n(c1=O)CCS2,–,"inconclusive: 12.6 µM [activator, partial curve]"
COc1ccc(S(=O)(=O)NCC(=O)Nc2ccc3c(c2)OCCO3)cc1OC,inactive: 3.42%,–
CN=c1scc(-c2cc(OC)ccc2OC)n1/N=C/c1c(C)[nH]c2ccccc12,–,"inconclusive: 35.5 µM [activator, single point]"
Cc1ccccc1OCC(=O)N/N=C/c1ccc([N+](=O)[O-])o1,inactive: 10.1%,–
